Reference: patent US20210061859A1, “NTCP Inhibitor” (The University of Tokyo, priority 2018, published 2021)
At least one peptide structure holds a part that was inferred or is arguable (an end, a ring closure or a residue). Some compounds share one wording; it may come from a single statement. Where a SMILES comes first, the peptide text is derived from it. Bridges are numbered along the chain shown (N, C = ends). [ ]: non-standard residue; d: D form. Sar = CNCC(=O)O

Legend:
HCV pseudoparticles = experiment: HCV pseudoparticle assay; format: cell-based, hepatitis C virus; conditions: Huh-7.5.1 cells, 30 μM peptide
[1] = system: preS1 attachment to HepG2-hNTCP-C4 cells; experiment: PreS1 binding assay (TAMRA-labeled preS1 probe attachment to host cells); format: cell-based, human; conditions: 37° C. 30 minutes, 1, 3, 10 and 30 μM

Row | Compound | infection by HCV (HCV pseudoparticles, luciferase activity) (HCV pseudoparticles) | attachment of labeled preS1 to cells [1]
1 | CC[C@H](C)[C@@H]1NC(=O)[C@H](Cc2ccc(O)cc2)NC(=O)CSC[C@@H](C(=O)N[C@H](C(N)=O)[C@@H](C)O)NC(=O)[C@H](Cc2ccc(O)cc2)NC(=O)[C@H]([C@@H](C)CC)NC(=O)[C@H](C(C)C)NC(=O)[C@H](Cc2ccc(O)cc2)NC(=O)CNC(=O)[C@@H]2CCCN2C(=O)[C@H](Cc2c[nH]c3ccccc23)NC(=O)[C@H]([C@@H](C)CC)NC(=O)[C@H](Cc2c[nH]c3ccccc23)NC1=O [WL2] ({CH2CO}-YIWIWPGYVIYCT-NH2; thioether N-12) | does not affect | reduced the attachment of labeled preS1 to cells in a dose-dependent manner
2 | CC[C@H](C)[C@@H]1NC(=O)[C@H](Cc2c[nH]c3ccccc23)NC(=O)[C@H]([C@@H](C)CC)NC(=O)[C@H](C(C)C)NC(=O)[C@H](Cc2ccc(O)cc2)NC(=O)CSC[C@@H](C(=O)N[C@H](C(N)=O)[C@@H](C)O)NC(=O)[C@H](Cc2ccc(O)cc2)NC(=O)[C@H](Cc2ccc(O)cc2)NC(=O)[C@H](Cc2ccccc2)NC(=O)[C@H](Cc2c[nH]cn2)NC(=O)[C@H](CC(N)=O)NC(=O)[C@@H]2CCCN2C(=O)[C@H](Cc2c[nH]c3ccccc23)NC1=O [WL4] ({CH2CO}-YVIWIWPNHFYYCT-NH2; thioether N-13) | does not affect | reduced the attachment of labeled preS1 to cells in a dose-dependent manner
3 | CC[C@H](C)[C@@H]1NC(=O)[C@H](Cc2ccccc2)NC(=O)[C@@H](Cc2ccc(O)cc2)NC(=O)CSC[C@@H](C(=O)N[C@H](C(N)=O)[C@@H](C)O)NC(=O)[C@H](CO)NC(=O)[C@H](Cc2c[nH]c3ccccc23)NC(=O)[C@H]([C@@H](C)O)NC(=O)[C@H](Cc2c[nH]c3ccccc23)NC(=O)[C@H]([C@@H](C)O)NC(=O)[C@H](Cc2c[nH]c3ccccc23)NC(=O)[C@H]([C@@H](C)O)NC(=O)CN(C)C(=O)[C@H](C(C)C)NC(=O)[C@H]([C@@H](C)CC)NC1=O [WD1] ({CH2CO}-[dY]FIIV[Sar]TWTWTWSCT-NH2; thioether N-14) | does not affect | reduced the attachment of labeled preS1 to cells in a dose-dependent manner
